Source: patent US20030162765A1, “2-amino-6-(2-substituted-4-phenoxy)-substituted-pyridines” (Pfizer Inc., priority 1997, published 2003)
Some results were stated once for a whole list of compounds, not compound by compound.

Tested on: inducible or neuronal NOS
Test: NOS inhibition (literature procedures)
Assay type: biochemical
Conditions: isoform not specified: either inducible or neuronal NOS

COc1cc(O)ccc1-c1cccc(N)n1 [Example 1, 4-(6-Amino-pyridin-2-yl)-3-methoxphenol] was tested, and the IC50 was less than 10 µM.
With COc1cc(OCCN(C)C)ccc1-c1cccc(N)n1 [Example 2, 6-[4-(2-Dimethylamino-ethoxy)-2-methoxy-phenyl]-pyridin-2-ylamine] the IC50 was less than 10 µM.
